Results are given in words; binding and its absence hold for the method and conditions named.
Biological target: Drosophila LIN9-LIN52 heterodimeric Myb-binding domain complex (D. melanogaster)
Experiment: condition: Myb fragment ~500 μM in the syringe, LIN9-LIN52 ~25–50 μM; ITC; Myb fragment (~500 μM) in the syringe injected into LIN9-LIN52 heterodimer (~25–50 μM) at 25°C; 20 mM Tris, 150 mM NaCl, 1 mM beta mercaptoethanol, pH 8.0; MicroCal VP-ITC; triplicate; both purified

binding: no binding
B1: Drosophila melanogaster Myb MuvB-binding domain (residues 602-632), D617A/Q618A double-substitution mutant (domain or fragment, UniProt P04197 602-632)
chain: VIDPKWARVACGKSRAAMFMEEQAYACLKNL
